Our source for the AC50 values is PubChem BioAssay AID1487 (National Center for Advancing Translational Sciences (NCATS), 2009).

The assay in a line: qHTS Assay for Modulators of Lamin A Splicing. Particulars: HeLa LMNA splicing GFP/RFP minigene ratio, 48 h. Put shortly: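 S3 HeLa cells stably expressing lamin A-EGFP splicing minigene plus DsRed2, 600 cells/well, 48 h compound exposure at 37C. Laser-scanning cytometry; analysed as GFP (500-530 nm)/RFP (575-640 nm) total intensity ratio; 0.5% DMSO vehicle.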
(Quantitative high-throughput screening tests each substance at several concentrations.)

Where [1] appears, read: measured here: RFP viability control channel.
Where [2] appears, read: measured here: GFP splicing reporter channel.

In general, AC50 refers to the midpoint of the concentration-response curve, whichever way the signal moves.

Structures are written as SMILES. The list shows a part of the results. The main result of the screen is listed elsewhere. These columns were measured beside it and carry no call. Most of these compounds were active or inconclusive in the main read-out, so they are no random draw. Words in brackets tell the shape of the fitted curve; partial curves, single points and poor fits give uncertain potencies.

Turning to `Cc1ccc(NC(=O)CN2C(=O)/C(=C\c3cccs3)SC2=S)cc1`, the half-maximal activity concentration (AC50) under setting [1] was 0.562 µM [rising, full curve, poor fit]. With `Cc1cc2c(cc1C)C(c1cccc([N+](=O)[O-])c1)CC(=O)N2` (stereo not given), the AC50 is 15.8 µM [rising, partial curve, poor fit] under setting [2] and 14.1 µM [rising, single point] under setting [1]. Take `O=C(Nc1ccn(Cc2ccc(F)cc2)n1)c1ccncc1`: under setting [1], the AC50 was 11.2 µM [rising, partial curve]. Take `OC(CN=c1sc2ccccc2n1CC(O)COc1ccccc1)COc1ccccc1` (stereo not given): the AC50 is 35.5 µM [falling, single point] under setting [2] and 35.5 µM [falling, single point] under setting [1]. As for `COc1ccc2oc(-c3ccc(NC(=O)c4ccc(N5CCOCC5)c([N+](=O)[O-])c4)cc3)nc2c1`, under setting [1], the AC50 was 35.5 µM [rising, single point]. `O=C1C=C(NCCN2CCOCC2)C(=O)c2cnccc21`: the AC50 reads like this: under setting [2], 3.16 µM [falling, partial curve]; under setting [1], 3.98 µM [falling, partial curve]. As to `CCOC(=O)C1CCCN(C(=O)Cn2cnc3c2c(=O)n(C)c(=O)n3C)C1` (stereo not given), the AC50 under setting [1] is 0.01 µM [rising, full curve, poor fit]. On to `O=C(CSc1ncnc2c1sc1ccccc12)Nc1ccc(Br)cc1`, for which the half-maximal activity concentration (AC50) under setting [2] is 0.158 µM [falling, full curve, poor fit]. Consider `Cc1cccc(Nc2nnc(SCC(=O)NC3CCCc4ccccc43)s2)c1C` (stereo not given), for which, under setting [1], the AC50 is 7.94 µM [rising, partial curve]. Take `C/C(=N\NC(=O)c1cc(-c2cccc([N+](=O)[O-])c2)n[nH]1)c1ccccc1O`: the concentration at half-maximal activity (AC50) runs as follows: under setting [2], 31.6 µM [rising, single point]; under setting [1], 35.5 µM [rising, single point]. On to `COc1ccc(-c2cc(C(=O)OC(C)C(=O)Nc3c(C)n(C)n(-c4ccccc4)c3=O)c3ccccc3n2)cc1` (stereo not given), for which the AC50 under setting [1] is 10 µM [rising, partial curve, poor fit]. On to `CC1Cc2ccccc2N1C(=O)c1ccc(N2CCCC2)c([N+](=O)[O-])c1` (stereo not given), for which, under setting [1], the AC50 was 31.6 µM [rising, single point].

`COC(=O)c1cc(=O)n(-c2ccccc2)c(=Nc2ccccc2)s1`: the AC50 reads like this: under setting [2], 2.82 µM [rising, full curve, poor fit]; under setting [1], 14.1 µM [rising, partial curve]. As for `O=C1NC2(CCCCC2)NN1c1ccccc1`, the AC50 runs as follows: under setting [2], 12.6 µM [rising, partial curve]; under setting [1], 12.6 µM [rising, partial curve, poor fit].

Turning to `CCOC(=O)c1cnc(SCc2ccc(C(C)(C)C)cc2)nc1N`, the concentration at half-maximal activity (AC50) under setting [1] was 14.1 µM [rising, single point]. `CCNC(=O)CCc1nc(-c2ccc(C(C)(C)C)cc2)no1`: the AC50 under setting [2] was 12.6 µM [rising, single point] and the AC50 under setting [1] is 17.8 µM [rising, single point]. Regarding `CN1CCN(c2ccc(Cl)cc2NC(=O)C2COc3ccccc3O2)CC1` (stereo not given), the AC50 under setting [1] is 7.08 µM [rising, full curve, poor fit]. Same read-out and setting: as for `CN1CCc2c(sc(NC(=O)CSc3ccccc3)c2-c2nc3ccccc3s2)C1`, the figure is 20 µM [falling, partial curve, poor fit]; as for `O=C(NCCCc1ccccc1)Nc1cccc(Cl)c1`, 15.8 µM [rising, partial curve].

Turning to `COCCSc1ccccc1C(=O)N1CCN(c2ccccc2)CC1`, the AC50 is, setting by setting: under setting [2], 0.316 µM [rising, full curve, poor fit]; under setting [1], 1.41 µM [rising, full curve, poor fit].

Turning to `Cc1cc(NC(=S)N(CCCN2CCOCC2)Cc2ccco2)ccc1Cl`, under setting [1], the AC50 is 20 µM [rising, partial curve, poor fit]. Same read-out and setting: as for `CC(=O)c1c(C)oc2c1cc(NS(=O)(=O)c1ccc(Br)cc1)c1ccccc12`, the figure is 0.0891 µM [rising, full curve, poor fit]; as for `CCCCNC(=O)c1ccc2c(c1)ncn2-c1cc(OC)ccc1OC`, 1.41 µM [falling, full curve, poor fit]. In the case of `CCc1ccc2c(c1)C(=O)C(=O)N2CC(=O)Nc1ccc(NC(=O)c2ccccn2)cc1`, under setting [1], the half-maximal activity concentration (AC50) is 11.2 µM [falling, single point]. Turning to `Cc1cc(C)n(CC(C)C(=O)O)n1` (stereo not given), under setting [1], the half-maximal activity concentration (AC50) is 5.01 µM [falling, partial curve]. As for `Nc1cccc(C(=O)OCC(=O)NC2CCCc3ccccc32)c1` (stereo not given), the AC50 under setting [2] was 6.31 µM [rising, single point]. For `COc1ccc2[nH]cc(CCNc3nc(-c4cccnc4)nc4ccccc34)c2c1`, the concentration at half-maximal activity (AC50) was 14.1 µM [falling, partial curve] under setting [2] and 20 µM [falling, partial curve] under setting [1].

Consider `COC(=O)c1ccc(NC(=O)CCn2cnnn2)cc1`, for which the AC50 under setting [1] is 3.16 µM [falling, partial curve, poor fit]. For `CCc1ccccc1NNC(=O)c1cc(C)on1`, the AC50 under setting [2] is 35.5 µM [rising, single point].

Consider `CCn1cc(/C=C/C(=O)Nc2ccc(C)cc2Br)cn1`, for which the AC50 under setting [2] is 3.16 µM [rising, single point] and the concentration at half-maximal activity (AC50) under setting [1] is 35.5 µM [rising, single point].

Take `Cc1cc(C)c(S(=O)(=O)Nc2ccc3c4c(cccc24)CC3)c(C)c1`: the half-maximal activity concentration (AC50) runs as follows: under setting [2], 1 µM [falling, full curve]; under setting [1], 1.26 µM [falling, full curve]. Turning to `COCCNC(=O)CCCn1c(=O)c2cc(OC)c(OC)cc2n(CC(=O)c2ccccc2)c1=O`, the half-maximal activity concentration (AC50) under setting [2] was 0.562 µM [falling, full curve, poor fit].

For `Cc1ccc(C)c(NC(=S)NCc2ccc3[nH]c4c(c3c2)CCCC4)c1`, the concentration at half-maximal activity (AC50) is, setting by setting: under setting [2], 35.5 µM [rising, single point]; under setting [1], 35.5 µM [rising, single point]. Consider `Cc1ccc(C)c(OCCCCn2cnc3ccccc3c2=O)c1`, for which the AC50 under setting [1] was 11.2 µM [rising, partial curve]. For the molecule `COc1ccccc1/C=C/CN1CCC(CO)(Cc2ccccc2)CC1`, the concentration at half-maximal activity (AC50) by setting is: under setting [2], 0.631 µM [falling, full curve, poor fit]; under setting [1], 1.26 µM [falling, full curve].

Regarding `Cc1ccc(-n2nnnc2CNC(=O)c2cc(C(F)(F)F)cc(C(F)(F)F)c2)cc1C`, the AC50 was 0.708 µM [rising, full curve, poor fit] under setting [2] and 0.708 µM [rising, full curve, poor fit] under setting [1].
